Record: PubChem BioAssay AID1224830 (NIAID, 2016)

Screen: 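Regulators of TLR4 signalling towards TNF-alpha in macrophage-like cells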 (primary screen)
System: human THP-1 monocytic leukaemia cells, TNF dual-luciferase reporter clone, PMA-differentiated to macrophage-like cells
Reagents: siRNA pool against human genes, 50 nM
Duration: LPS for 4 h, given about 3 days after siRNA transfection
Challenge: bacterial LPS (TLR4 ligand), 10 ng/ml
Detection: 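Ratio of firefly to renilla light, scaled to the plate median and expressed as a robust z-score per replicate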
Reading the numbers: TNF reporter robust z-score: higher = stronger TNF reporter response to LPS
Rule for the call: 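Each well counts as active if its z-score is over 2.8 or under -1.5; controls are left without a call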
The whole screen tested about 18,000 reagents; this is a random part of them. Over the whole deposit, about 2,900 (16%) are marked active. 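Calls are made per well; low scores hint the gene aids the LPS response, high scores that it dampens it.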 Repeated entries: four replicate wells of each siRNA pool. Reagent sequences are not shown.

The opening 3 entries, ahead of the listing:
gene | TNF reporter robust z-score | outcome
CLEC6A | 0.87 | inactive
CLEC6A | -0.04 | inactive
CLEC6A | -0.48 | inactive

Results, repeating the preview:
gene | TNF reporter robust z-score | outcome
CLEC6A | 0.87 | inactive
CLEC6A | -0.04 | inactive
CLEC6A | -0.48 | inactive
CLEC6A | -0.33 | inactive
PLSCR5 | 0.19 | inactive
PLSCR5 | -0.01 | inactive
PLSCR5 | 0.12 | inactive
PLSCR5 | 0.04 | inactive
KRTAP4-4 | -0.74 | inactive
KRTAP4-4 | 0.92 | inactive
KRTAP4-4 | 0.64 | inactive
KRTAP4-4 | -0.52 | inactive
N4BP2L2 | -0.78 | inactive
N4BP2L2 | -0.83 | inactive
N4BP2L2 | 3.71 | active
N4BP2L2 | -0.48 | inactive
CAMKMT | – | inactive
ATP8A1 | -0.32 | inactive
ATP8A1 | 0.04 | inactive
ATP8A1 | -0.19 | inactive
ATP8A1 | 0.38 | inactive
PLIN2 | 1.18 | inactive
PLIN2 | 0.17 | inactive
PLIN2 | 0.51 | inactive
PLIN2 | 0.71 | inactive
OR2A12 | -0.14 | inactive
OR2A12 | 0.67 | inactive
OR2A12 | 0.16 | inactive
OR2A12 | -0.34 | inactive
PCDHGA2 | 0.03 | inactive
PCDHGA2 | -0.67 | inactive
PCDHGA2 | -0.3 | inactive
PCDHGA2 | 0.64 | inactive
PDF | 1.06 | inactive
PDF | 1.38 | inactive
PDF | 2.33 | inactive
PDF | 3.13 | active
ERMARD | 1.63 | inactive
ERMARD | 1.09 | inactive
ERMARD | 0.66 | inactive
ERMARD | 0.62 | inactive
CSN3 | -0.6 | inactive
CSN3 | -0.08 | inactive
CSN3 | -0.38 | inactive
CSN3 | 0.1 | inactive
NFATC1 | 2.5 | inactive
NFATC1 | 0.8 | inactive
NFATC1 | 1.14 | inactive
NFATC1 | 1.88 | inactive
NOX1 | 0.69 | inactive
NOX1 | -0.57 | inactive
NOX1 | -0.63 | inactive
NOX1 | -0.45 | inactive
LIMK1 | 0.26 | inactive
LIMK1 | 1.05 | inactive
LIMK1 | 0.16 | inactive
LIMK1 | 1.33 | inactive
DNM2 | 0.96 | inactive
DNM2 | 0.47 | inactive
DNM2 | 0.52 | inactive
DNM2 | 0.31 | inactive
SP5 | -1.1 | inactive
SP5 | -1.11 | inactive
SP5 | 0.25 | inactive
SP5 | -0.48 | inactive
CRHBP | 0.15 | inactive
CRHBP | 0.05 | inactive
CRHBP | 0.67 | inactive
CRHBP | 0.58 | inactive
STX8 | -1.23 | inactive
STX8 | -1.09 | inactive
STX8 | -0.29 | inactive
STX8 | -0.11 | inactive
FOXD4 | 0.01 | inactive
FOXD4 | 1.41 | inactive
FOXD4 | 0.43 | inactive
FOXD4 | 1.73 | inactive
ZNG1E | 1.41 | inactive
ZNG1E | -0.05 | inactive
ZNG1E | 0.22 | inactive
ZNG1E | -0.34 | inactive
SC5D | -1.63 | active
SC5D | -1.3 | inactive
SC5D | -1.51 | active
SC5D | -1.26 | inactive
MAB21L2 | -0.43 | inactive
MAB21L2 | 0.21 | inactive
MAB21L2 | -0.7 | inactive
MAB21L2 | 0.2 | inactive
C5 | -0.02 | inactive
C5 | -1.21 | inactive
C5 | -1.74 | active
C5 | -1.69 | active
PXMP4 | 1.84 | inactive
PXMP4 | 1.11 | inactive
PXMP4 | 0.01 | inactive
PXMP4 | -0.23 | inactive
TLR6 | 3.05 | active
TLR6 | 5.26 | active
TLR6 | 1.73 | inactive
TLR6 | 3.03 | active
IRF1 | 0.3 | inactive
IRF1 | 0.36 | inactive
IRF1 | -0.2 | inactive
IRF1 | 0.31 | inactive
RPS17 | -0.48 | inactive
RPS17 | -0.07 | inactive
RPS17 | -0.76 | inactive
RPS17 | -0.34 | inactive
PHB2 | -1.22 | inactive
PHB2 | -0.66 | inactive
PHB2 | -0.74 | inactive
PHB2 | -0.75 | inactive
